Test results reported in paper doi:10.1101/2024.07.10.602886.

Chains of the proteins cited; added tags and fusions are not shown. Lines headed by an entry give the natural chain unless they say otherwise; changes in a name come on top.
UniProt Q9H1Y0: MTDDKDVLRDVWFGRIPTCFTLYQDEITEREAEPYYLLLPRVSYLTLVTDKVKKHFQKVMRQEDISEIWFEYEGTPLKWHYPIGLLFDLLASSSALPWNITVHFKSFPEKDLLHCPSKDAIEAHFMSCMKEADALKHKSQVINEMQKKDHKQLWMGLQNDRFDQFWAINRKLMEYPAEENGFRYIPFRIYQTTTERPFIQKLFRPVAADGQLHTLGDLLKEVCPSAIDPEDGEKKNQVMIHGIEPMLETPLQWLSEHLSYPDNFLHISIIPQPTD

Legend:
APEX2-ATG5 K130R = APEX2-ATG5 K130R (UniProt Q9H1Y0); test: proximity labelling; APEX2 proximity biotinylation in FlpIn-HeLa APEX2-ATG5-WT or -K130R cells; 500 uM biotin-phenol with or without 2 mM LLOMe for 30 min, 1 mM H2O2 for 1 min; streptavidin beads; DIA LC-MS/MS
APEX2-ATG5 WT = APEX2-ATG5 WT (UniProt Q9H1Y0); test: as above

VPS26A (endogenous) (from UniProt O75436 1-327)
binding (APEX2-ATG5 K130R): binds
binding (APEX2-ATG5 WT): binds

Results are given in words; binding and its absence hold for the method and conditions named. Binding seen in cells or lysates may run through a third protein. Here binding means that the protein was enriched with, or labelled near, the bait; the list need not be complete.
